Data published in PMC3902928, “Nuclear ubiquitination by FBXL5 modulates Snail1 DNA binding and stability” (Nucleic Acids Research, 2013).

By UniProt entry, the sequences of proteins in these tests, tags left out. Where a name states a change or a piece, a line headed by the entry shows the natural chain unless it says otherwise.
UniProt Q02085: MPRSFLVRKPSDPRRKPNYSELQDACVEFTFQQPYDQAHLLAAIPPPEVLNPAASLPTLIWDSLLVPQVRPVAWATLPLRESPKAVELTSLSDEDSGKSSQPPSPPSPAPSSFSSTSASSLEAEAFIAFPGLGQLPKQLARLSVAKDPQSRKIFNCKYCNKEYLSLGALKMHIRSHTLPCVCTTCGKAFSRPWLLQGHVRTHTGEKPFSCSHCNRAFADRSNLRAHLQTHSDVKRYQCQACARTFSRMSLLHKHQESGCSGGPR

Assays:
GST-Snail1-HA [1] = target: GST-Snail1-HA (UniProt Q02085); test: EMSA; details: EMSA as described in ref 22, pH and temperature not given, recombinant protein, residues 1-264, protein details: N-term GST, C-term HA, label: 32P
[2] = target: GST-Snail1-HA polyubiquitinated in vitro by SCF-FBXL5 (UniProt Q02085); test: EMSA; details: ubiquitinated Snail1 versus same reaction without E1, E2 and ubiquitin; EMSA as described in ref 22; pH and temperature not given; recombinant protein; residues 1-264; protein details: N-term GST, C-term HA; label: 32P
GST-Snail1-HA [3] = target: GST-Snail1-HA (UniProt Q02085); test: competition with a labelled probe; details: cold mutant competitor against 32P wt E-box 1 probe; EMSA as described in ref 22; pH and temperature not given; recombinant protein; residues 1-264; protein details: N-term GST, C-term HA; label: unlabelled competitor

GGCTGAGGGTTCACCTGCCGCCACAGCC (double strand) [E-cadherin promoter E-box 1 probe]
binding result (GST-Snail1-HA [1]; SCF-FBXL5 present, no E1/E2/ubiquitin, binding not substantially decreased): binds | binding result (GST-Snail1-HA [1]; supershift with anti-HA, competed by cold wt probe): binds | binding result [2]: binds more weakly

GGCTGAGGGTTAACCTACCGCCACAGCC (double strand) [E-box 1 mutated]
binding result (GST-Snail1-HA [3]): no binding

The exact form of at least one protein or probe is not confirmed. For some of these results: Negatives hold for the conditions tested. For some of these results: A weaker result is weaker than the reference pair of the same experiment.
